In publication PMC7819943, “Rice protein-binding microarrays: a tool to detect cis-acting elements near promoter regions in rice”:
This is one part of the list.

The chains behind the UniProt entries cited, without tags or fusion partners.
UniProt Q0JBA9, entry or part of it: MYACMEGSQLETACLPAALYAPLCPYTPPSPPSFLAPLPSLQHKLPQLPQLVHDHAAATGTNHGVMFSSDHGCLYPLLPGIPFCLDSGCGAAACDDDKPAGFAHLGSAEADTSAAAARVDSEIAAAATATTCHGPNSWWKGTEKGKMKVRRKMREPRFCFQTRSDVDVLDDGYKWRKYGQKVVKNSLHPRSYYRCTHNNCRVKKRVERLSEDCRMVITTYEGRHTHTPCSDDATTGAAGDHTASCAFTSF

The sequences below were run against OsWRKY34 (Oryza sativa, UniProt Q0JBA9 1-250) (assay: protein-binding microarray (RPBM); PBS, 2% BSA, 51.3 ng/ul salmon testes DNA, 50 uM zinc acetate, 200 nM TF, 25 C, 1 h; high values mean tight binding). Details: protein: recombinant; tags: N-terminal polyhistidine and DsRed monomer fusion (pET32a); label: CyDye5-dUTP incorporated in the synthesized complementary strand; 3' TTTTT single-stranded linker to array surface; dsDNA, one strand shown.
How it was run: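 Binding signal is reported as fluorescence intensity per feature (arbitrary units) from an Axon 4000B scanner. Incubation used 200 nM of each Ni–NTA-purified, N-terminally polyhistidine- and DsRed-fused transcription factor from E. coli BL21-CodonPlus on a double-stranded custom Agilent array for 1 h at 25 °C, with 50 µM zinc acetate in the buffer, followed by washing.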

In order of falling binding signal:
1. GAAAAATTGTCCCTTTTTATTTGGGAGGGGAGGGAGGAGGCGGAGTCACCTAGTGCAG  17100 fluorescence intensity (a.u.)
2. GTGGAGCTTTTTTTCTTGGTTGGGTGGGGATGAGTTCTTGCGGAGTCACCTAGTGCAG  16300 fluorescence intensity (a.u.)
3. CCGTTATACTCCTTCGGTTTCCGTTTCCGTTTCCGTTTCACGGAGTCACCTAGTGCAG  12900 fluorescence intensity (a.u.)
4. ATTTTTACTCTTTGCTTCACACTACTTTTTTTGGGTTGATCGGAGTCACCTAGTGCAG  12400 fluorescence intensity (a.u.)
5. GGCCCTTTTTCCGAGCTTCTGGATGAACTGTCAGCATTTTCGGAGTCACCTAGTGCAG  12200 fluorescence intensity (a.u.)
6. TCCTTACTTTACTTTCTTTGTGATCACTTACGGTTTGGCACGGAGTCACCTAGTGCAG  11700 fluorescence intensity (a.u.)
7. ACCCTACCGTTATCAACTGCTGCTTTCCTACTCCCTGTGGCGGAGTCACCTAGTGCAG  10900 fluorescence intensity (a.u.)
8. CCTGACTTCTTTTTCGTCGCATCTGCTTCAGTAAGTCCAGCGGAGTCACCTAGTGCAG  10900 fluorescence intensity (a.u.)
9. ATCCCTACCTATGCCGCTCGCCATCGTGATGGCCACCTCTCGGAGTCACCTAGTGCAG  10400 fluorescence intensity (a.u.)
10. GTTGAGGGGATGGGATGGGATGGGATGGGACGAACTCACTCGGAGTCACCTAGTGCAG  10200 fluorescence intensity (a.u.)
11. TCATATCTTTTGTTTTCTGCGCGCAAGCTTTCTAAACGGCCGGAGTCACCTAGTGCAG  10100 fluorescence intensity (a.u.)
12. CCCCACCACCTCATCGATCCGCGCCACCACCCAACCCACCCGGAGTCACCTAGTGCAG  10000 fluorescence intensity (a.u.)
13. ACCACCACTCTCTTTTTGGCGCCTAATCGGCTAATCCCCTCGGAGTCACCTAGTGCAG  9880 fluorescence intensity (a.u.)
14. GCCTCCGCCTCCACTCCACAACTCCGCCGCCGCCGCAATGCGGAGTCACCTAGTGCAG  9850 fluorescence intensity (a.u.)
15. GTGGTTTTGGGAGTTGAGGGATAGGTTATACCCGATTTTACGGAGTCACCTAGTGCAG  9840 fluorescence intensity (a.u.)
16. ACGTGATAGCGGATCACAAAATTTTAAATGTTTCGTTGACCGGAGTCACCTAGTGCAG  9510 fluorescence intensity (a.u.)
17. TTCCTCTGGATTTGGATTGGAATTGTGTTCTTAGTTTTTTCGGAGTCACCTAGTGCAG  9370 fluorescence intensity (a.u.)
18. TTGACGCAGTTGCATCTGTCTTTCGTGTGGATTACTGGAGCGGAGTCACCTAGTGCAG  9210 fluorescence intensity (a.u.)
19. TAGTCCCGGTCCTCACCATTGACCAAGGCTGACCTCAAGTCGGAGTCACCTAGTGCAG  9060 fluorescence intensity (a.u.)
20. CGCCCGCGTCAGCCCCGTCGTCGCCGGTCCGTCGCCGCCCCGGAGTCACCTAGTGCAG  8920 fluorescence intensity (a.u.)
21. GTCACATAGTAATATCTTCTTTCTTGCATTTGTCACTTCCCGGAGTCACCTAGTGCAG  8840 fluorescence intensity (a.u.)
22. CAGACATGCCCTTCTCTATCTTCCTTGGCCATCTCTGCCTCGGAGTCACCTAGTGCAG  8800 fluorescence intensity (a.u.)
23. GTCACTTCTCCTTTTTTTTTGGCATGCAATAGACTTCCTTCGGAGTCACCTAGTGCAG  8780 fluorescence intensity (a.u.)
24. CTCCGAGGCCCGTTTATTACCAGCTTTCCTGAGCCCTACTCGGAGTCACCTAGTGCAG  8650 fluorescence intensity (a.u.)
25. TTCCTCTTCACGTGACTGACATGTGGGCCCCACTCAGCCTCGGAGTCACCTAGTGCAG  8540 fluorescence intensity (a.u.)
26. TCCGATGGATCCTTTTGTTGCGTTGTTGTCAACATTGCCACGGAGTCACCTAGTGCAG  8500 fluorescence intensity (a.u.)
27. TGTTTAGATTGGTGTCATTTTAAATCATTCTATTTTTTTACGGAGTCACCTAGTGCAG  8500 fluorescence intensity (a.u.)
28. TACACCTGATCACTACAAATCTGTAGTCCGTTGCTTTTCTCGGAGTCACCTAGTGCAG  8480 fluorescence intensity (a.u.)
29. GTCGGTGTCTCGTGTTTTCTGGCTGGCATACGATATTTCCCGGAGTCACCTAGTGCAG  8470 fluorescence intensity (a.u.)
30. GCTCCACCTACTCCGCTCCCCTCTGCTCGGCTGCTCCCATCGGAGTCACCTAGTGCAG  8470 fluorescence intensity (a.u.)
31. CCTCGAAGCGACCCCGTCTCTCGCGAGTTCTCCCGTCGTCCGGAGTCACCTAGTGCAG  8420 fluorescence intensity (a.u.)
32. CCTTGCTGTCATCTTACGTGCCCGTCCTAGCCTCTGACGACGGAGTCACCTAGTGCAG  8380 fluorescence intensity (a.u.)
33. TTCAACTGCATTATTGTGTTTTTATTTGGAATTTAGTGCCCGGAGTCACCTAGTGCAG  8380 fluorescence intensity (a.u.)
34. AAGCAGCAATCCACCACCATCATCGTCATCATAACGATCGCGGAGTCACCTAGTGCAG  8360 fluorescence intensity (a.u.)
35. GCAGCAGCAGCAATCCTCTGATCATTCCTGTACACATACCCGGAGTCACCTAGTGCAG  8280 fluorescence intensity (a.u.)
36. CTAGACTTCTCCGGTATTATATAACATTAACTTCCCAGTTCGGAGTCACCTAGTGCAG  8280 fluorescence intensity (a.u.)
37. CCCACATGTCAGCCTCACTCATCATCGGGTCCCGCATCACCGGAGTCACCTAGTGCAG  8160 fluorescence intensity (a.u.)
38. GTTGCTTACTACCTGGTATTAGTCATTGTGGGAGTAGTTCCGGAGTCACCTAGTGCAG  8160 fluorescence intensity (a.u.)
39. ATTCTGGTTTGATTTCTAGCTAGTGATTGTCACTTCATTCCGGAGTCACCTAGTGCAG  8130 fluorescence intensity (a.u.)
40. CTACCGCCACGCCTTCGCCACCATCTCCATCGCACCCTTCCGGAGTCACCTAGTGCAG  8130 fluorescence intensity (a.u.)
41. ATAGAGCACTACTACCGCATAAAAGATTTGTACTGGTACACGGAGTCACCTAGTGCAG  8080 fluorescence intensity (a.u.)
42. TTTTTTCCTTTTTTTTTCTTTTCTCACGCCCAATATCTCCCGGAGTCACCTAGTGCAG  8040 fluorescence intensity (a.u.)
